Laboratory results from the supplement of paper PMC11732987, “Enantioselective OTUD7B fragment discovery through chemoproteomics screening and high-throughput optimisation” (Communications Chemistry, 2025).
Some of the results follow. The data scatter; read single values as rough.

By UniProt entry, the sequences of proteins in these tests, tags left out. Where a name states a change or a piece, a line headed by the entry shows the natural chain unless it says otherwise. Residues count along the entry.
UniProt Q96HC4: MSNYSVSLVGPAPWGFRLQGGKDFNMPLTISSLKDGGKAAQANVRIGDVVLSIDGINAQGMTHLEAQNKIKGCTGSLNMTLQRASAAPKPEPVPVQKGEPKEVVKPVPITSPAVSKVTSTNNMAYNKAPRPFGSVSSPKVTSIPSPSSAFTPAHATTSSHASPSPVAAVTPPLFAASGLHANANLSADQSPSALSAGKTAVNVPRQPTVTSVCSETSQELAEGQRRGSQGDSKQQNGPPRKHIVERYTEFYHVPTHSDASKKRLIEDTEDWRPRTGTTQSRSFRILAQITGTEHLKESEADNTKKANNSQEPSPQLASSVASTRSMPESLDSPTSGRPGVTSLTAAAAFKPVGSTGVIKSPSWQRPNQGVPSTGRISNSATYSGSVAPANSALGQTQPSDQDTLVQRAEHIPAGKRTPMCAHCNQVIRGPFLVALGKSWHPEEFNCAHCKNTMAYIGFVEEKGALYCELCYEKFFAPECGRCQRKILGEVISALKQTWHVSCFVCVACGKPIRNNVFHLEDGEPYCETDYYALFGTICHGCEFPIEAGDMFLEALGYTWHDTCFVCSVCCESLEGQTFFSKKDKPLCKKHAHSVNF
UniProt P11498: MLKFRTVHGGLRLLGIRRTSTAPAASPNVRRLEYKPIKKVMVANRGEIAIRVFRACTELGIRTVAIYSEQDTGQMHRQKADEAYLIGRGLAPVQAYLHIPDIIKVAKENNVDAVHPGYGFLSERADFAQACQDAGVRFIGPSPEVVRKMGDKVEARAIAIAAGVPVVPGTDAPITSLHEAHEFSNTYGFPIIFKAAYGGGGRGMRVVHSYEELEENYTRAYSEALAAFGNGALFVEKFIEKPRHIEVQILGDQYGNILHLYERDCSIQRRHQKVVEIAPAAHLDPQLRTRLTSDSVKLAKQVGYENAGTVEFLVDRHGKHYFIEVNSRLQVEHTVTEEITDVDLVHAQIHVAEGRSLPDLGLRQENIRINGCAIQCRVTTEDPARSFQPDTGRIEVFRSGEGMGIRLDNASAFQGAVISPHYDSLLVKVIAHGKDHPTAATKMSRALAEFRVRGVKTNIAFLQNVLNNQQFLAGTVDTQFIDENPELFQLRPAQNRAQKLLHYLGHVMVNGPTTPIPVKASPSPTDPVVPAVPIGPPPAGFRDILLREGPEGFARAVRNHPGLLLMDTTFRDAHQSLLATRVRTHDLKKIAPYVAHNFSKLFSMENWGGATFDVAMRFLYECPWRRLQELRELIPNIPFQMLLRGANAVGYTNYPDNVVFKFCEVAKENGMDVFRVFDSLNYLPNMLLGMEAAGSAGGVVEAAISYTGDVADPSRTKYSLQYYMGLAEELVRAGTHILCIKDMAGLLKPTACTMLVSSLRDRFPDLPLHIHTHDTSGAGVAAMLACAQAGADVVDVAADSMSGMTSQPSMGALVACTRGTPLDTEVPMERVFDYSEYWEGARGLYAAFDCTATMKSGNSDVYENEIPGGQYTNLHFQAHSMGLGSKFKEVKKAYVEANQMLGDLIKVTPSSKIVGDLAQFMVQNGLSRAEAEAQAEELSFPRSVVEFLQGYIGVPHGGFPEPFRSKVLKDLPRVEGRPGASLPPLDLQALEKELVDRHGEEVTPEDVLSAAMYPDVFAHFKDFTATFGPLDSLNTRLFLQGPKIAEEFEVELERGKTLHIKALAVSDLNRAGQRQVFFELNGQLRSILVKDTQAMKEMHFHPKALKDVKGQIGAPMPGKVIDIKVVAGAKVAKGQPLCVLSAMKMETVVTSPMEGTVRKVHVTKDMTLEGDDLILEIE
UniProt O15067: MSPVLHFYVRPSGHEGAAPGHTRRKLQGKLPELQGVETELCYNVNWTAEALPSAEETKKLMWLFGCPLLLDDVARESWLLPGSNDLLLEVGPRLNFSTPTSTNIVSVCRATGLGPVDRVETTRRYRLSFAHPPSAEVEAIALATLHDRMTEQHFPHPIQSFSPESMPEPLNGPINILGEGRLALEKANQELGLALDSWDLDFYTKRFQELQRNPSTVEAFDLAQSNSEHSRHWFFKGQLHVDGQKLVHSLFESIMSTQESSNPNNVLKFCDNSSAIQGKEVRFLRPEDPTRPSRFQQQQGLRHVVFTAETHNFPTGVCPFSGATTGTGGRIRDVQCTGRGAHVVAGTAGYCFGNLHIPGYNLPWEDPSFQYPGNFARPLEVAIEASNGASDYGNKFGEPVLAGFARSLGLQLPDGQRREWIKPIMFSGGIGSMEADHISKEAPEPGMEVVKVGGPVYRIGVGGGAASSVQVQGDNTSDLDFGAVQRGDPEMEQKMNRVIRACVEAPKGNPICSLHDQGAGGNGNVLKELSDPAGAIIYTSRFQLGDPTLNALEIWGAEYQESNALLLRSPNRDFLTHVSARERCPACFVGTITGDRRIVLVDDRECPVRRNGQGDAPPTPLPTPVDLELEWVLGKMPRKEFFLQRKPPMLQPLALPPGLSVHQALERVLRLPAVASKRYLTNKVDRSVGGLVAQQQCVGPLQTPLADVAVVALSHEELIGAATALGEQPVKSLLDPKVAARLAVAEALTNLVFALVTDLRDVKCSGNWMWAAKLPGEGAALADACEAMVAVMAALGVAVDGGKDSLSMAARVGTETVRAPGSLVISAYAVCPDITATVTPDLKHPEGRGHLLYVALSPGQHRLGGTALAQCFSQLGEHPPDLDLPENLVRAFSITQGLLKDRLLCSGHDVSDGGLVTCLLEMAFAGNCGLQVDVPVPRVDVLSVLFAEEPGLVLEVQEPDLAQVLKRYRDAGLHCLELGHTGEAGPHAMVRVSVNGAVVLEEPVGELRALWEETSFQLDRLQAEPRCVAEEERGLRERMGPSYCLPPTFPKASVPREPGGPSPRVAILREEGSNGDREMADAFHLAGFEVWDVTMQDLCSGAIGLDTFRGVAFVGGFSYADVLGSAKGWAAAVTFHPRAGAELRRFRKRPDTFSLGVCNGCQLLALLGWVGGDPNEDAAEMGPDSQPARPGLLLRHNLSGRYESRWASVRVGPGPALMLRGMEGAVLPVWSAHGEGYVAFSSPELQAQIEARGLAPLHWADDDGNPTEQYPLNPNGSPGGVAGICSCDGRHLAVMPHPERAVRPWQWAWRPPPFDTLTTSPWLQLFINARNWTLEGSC
UniProt P12004, 118-138: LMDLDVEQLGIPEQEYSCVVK
UniProt Q13310: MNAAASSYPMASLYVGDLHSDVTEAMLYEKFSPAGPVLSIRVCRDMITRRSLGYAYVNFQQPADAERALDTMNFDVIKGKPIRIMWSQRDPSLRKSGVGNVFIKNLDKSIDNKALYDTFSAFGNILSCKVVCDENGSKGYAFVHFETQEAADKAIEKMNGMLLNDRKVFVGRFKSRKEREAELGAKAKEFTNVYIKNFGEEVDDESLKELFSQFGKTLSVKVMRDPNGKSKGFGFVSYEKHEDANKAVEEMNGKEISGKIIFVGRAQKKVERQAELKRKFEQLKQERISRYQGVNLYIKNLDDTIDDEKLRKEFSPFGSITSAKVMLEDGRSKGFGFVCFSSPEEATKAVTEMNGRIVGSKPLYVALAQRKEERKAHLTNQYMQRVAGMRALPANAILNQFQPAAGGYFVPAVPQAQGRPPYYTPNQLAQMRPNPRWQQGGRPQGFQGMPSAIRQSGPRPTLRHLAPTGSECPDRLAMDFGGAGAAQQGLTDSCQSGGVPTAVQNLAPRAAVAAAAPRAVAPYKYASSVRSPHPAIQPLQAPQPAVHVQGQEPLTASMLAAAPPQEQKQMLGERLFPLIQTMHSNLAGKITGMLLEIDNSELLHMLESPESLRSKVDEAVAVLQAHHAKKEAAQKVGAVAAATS
UniProt Q15154: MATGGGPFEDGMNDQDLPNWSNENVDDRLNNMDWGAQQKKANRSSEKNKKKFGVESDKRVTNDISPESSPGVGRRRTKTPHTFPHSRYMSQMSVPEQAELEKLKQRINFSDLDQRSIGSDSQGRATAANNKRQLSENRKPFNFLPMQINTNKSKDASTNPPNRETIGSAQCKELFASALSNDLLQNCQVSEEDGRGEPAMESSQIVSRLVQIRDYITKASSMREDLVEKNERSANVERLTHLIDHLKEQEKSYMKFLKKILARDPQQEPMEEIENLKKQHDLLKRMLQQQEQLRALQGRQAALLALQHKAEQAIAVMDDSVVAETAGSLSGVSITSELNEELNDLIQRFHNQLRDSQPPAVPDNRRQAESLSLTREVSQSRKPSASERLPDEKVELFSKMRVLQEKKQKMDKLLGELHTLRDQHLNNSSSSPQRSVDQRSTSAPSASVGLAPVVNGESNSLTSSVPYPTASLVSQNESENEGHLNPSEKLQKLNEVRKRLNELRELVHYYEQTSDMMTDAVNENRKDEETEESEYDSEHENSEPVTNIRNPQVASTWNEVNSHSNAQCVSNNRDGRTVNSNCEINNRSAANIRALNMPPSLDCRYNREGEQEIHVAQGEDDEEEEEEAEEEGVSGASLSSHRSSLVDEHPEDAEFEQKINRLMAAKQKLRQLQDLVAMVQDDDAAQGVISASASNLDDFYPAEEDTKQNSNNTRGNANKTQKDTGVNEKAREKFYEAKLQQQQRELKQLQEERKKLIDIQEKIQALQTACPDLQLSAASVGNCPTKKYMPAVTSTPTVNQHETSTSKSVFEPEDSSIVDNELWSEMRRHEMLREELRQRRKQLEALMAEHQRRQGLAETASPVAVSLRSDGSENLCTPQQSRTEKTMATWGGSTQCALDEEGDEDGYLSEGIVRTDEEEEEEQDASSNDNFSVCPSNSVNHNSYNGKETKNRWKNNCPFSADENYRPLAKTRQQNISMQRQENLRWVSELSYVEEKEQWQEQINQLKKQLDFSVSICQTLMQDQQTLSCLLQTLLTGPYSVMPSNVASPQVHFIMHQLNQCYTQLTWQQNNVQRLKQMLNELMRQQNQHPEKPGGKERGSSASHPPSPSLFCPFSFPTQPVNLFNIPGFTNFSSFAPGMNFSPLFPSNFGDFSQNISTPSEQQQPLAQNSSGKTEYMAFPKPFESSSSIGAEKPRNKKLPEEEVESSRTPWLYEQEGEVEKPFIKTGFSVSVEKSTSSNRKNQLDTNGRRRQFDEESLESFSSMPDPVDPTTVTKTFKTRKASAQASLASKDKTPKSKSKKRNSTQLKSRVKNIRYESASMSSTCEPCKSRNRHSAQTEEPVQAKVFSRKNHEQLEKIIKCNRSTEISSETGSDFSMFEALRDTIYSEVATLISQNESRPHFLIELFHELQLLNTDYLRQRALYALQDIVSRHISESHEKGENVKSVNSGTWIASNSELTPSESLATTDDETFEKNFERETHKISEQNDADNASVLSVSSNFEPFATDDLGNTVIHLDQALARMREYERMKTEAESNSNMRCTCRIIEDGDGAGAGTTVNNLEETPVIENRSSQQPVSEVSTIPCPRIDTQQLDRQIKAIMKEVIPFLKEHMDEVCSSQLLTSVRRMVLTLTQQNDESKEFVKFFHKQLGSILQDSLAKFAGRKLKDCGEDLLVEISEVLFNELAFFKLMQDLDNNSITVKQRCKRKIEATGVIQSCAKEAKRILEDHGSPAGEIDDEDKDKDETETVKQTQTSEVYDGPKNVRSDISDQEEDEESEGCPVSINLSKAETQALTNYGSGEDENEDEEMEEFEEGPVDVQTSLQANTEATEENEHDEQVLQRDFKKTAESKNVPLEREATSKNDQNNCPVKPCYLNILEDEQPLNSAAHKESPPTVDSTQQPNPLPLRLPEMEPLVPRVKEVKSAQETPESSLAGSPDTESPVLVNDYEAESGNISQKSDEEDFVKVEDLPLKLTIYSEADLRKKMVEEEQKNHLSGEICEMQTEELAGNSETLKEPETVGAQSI
UniProt Q9UGN5: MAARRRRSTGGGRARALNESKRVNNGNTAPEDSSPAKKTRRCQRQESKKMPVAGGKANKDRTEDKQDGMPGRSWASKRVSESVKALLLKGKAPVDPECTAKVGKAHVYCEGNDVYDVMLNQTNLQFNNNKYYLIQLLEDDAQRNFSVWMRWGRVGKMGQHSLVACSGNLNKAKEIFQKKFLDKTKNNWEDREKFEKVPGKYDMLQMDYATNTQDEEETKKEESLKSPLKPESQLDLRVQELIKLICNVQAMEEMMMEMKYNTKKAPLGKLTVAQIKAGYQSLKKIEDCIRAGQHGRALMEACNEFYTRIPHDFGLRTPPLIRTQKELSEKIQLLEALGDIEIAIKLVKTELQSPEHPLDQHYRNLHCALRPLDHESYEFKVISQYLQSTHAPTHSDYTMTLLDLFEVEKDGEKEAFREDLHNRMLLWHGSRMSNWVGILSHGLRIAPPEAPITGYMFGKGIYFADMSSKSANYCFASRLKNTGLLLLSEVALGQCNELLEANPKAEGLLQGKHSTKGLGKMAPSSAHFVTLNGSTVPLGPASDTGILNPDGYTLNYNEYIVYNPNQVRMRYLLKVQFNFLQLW

compound: ClCC(=O)N[C@H]1CCCc2ccccc12; test: log2 mean competition ratio of IA-DTB cysteine labelling (DMSO/compound) (log2 ratio); higher = stronger cysteine engagement by compound; conditions: 50 µM; treatment time: 4 h; cell line lysate: HEK293T
Description: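 IA-DTB competitive cysteine chemoproteomics in HEK293T RIPA lysate. Lysates were treated with compound 29 or 30 at 50 or 200 µM for 4 h, then IA-DTB (500 µM, 1 h), trypsin-digested, NeutrAvidin-enriched and analysed by diaPASEF. Competition ratio = intensity DMSO / intensity compound (n=4 treated, n=64 DMSO); binding: mean log2 CR ≥ 1 and p ≤ 0.05 plus QC filters. Target is the cysteine site.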

Target | log2 mean competition ratio
PARG C711 (UniProt Q86W56) | 0.0546
PDLIM5 C479 (UniProt Q96HC4) | 0.164
PARD3 C921 (UniProt Q8TEW0) | 0.378
PC C622 (UniProt P11498) | -0.125
PFAS C270 (UniProt O15067) | -0.344
PDCD11 C599 (UniProt Q14690) | -0.14
PDK1 C71 | -0.157
PDK2 C392 (UniProt Q15119) | 0.415
PDE4A C218 (UniProt P27815) | -0.573
P4HA1 C503 (UniProt P13674) | 0.341
PDK2 C195 (UniProt Q15119) | -0.279
PFKFB2 C105 (UniProt O60825) | -0.249
OVCA2 C64 (UniProt Q8WZ82) | 0.0817
PCIF1 C455 (UniProt Q9H4Z3) | -0.167
PDE8A C338 (UniProt O60658) | -0.595
PDXDC1 C135 (UniProt Q6P996) | -0.49
PBK C300 (UniProt Q96KB5) | -0.618
PGM2 C484 (UniProt Q96G03) | -0.24
PANK4 C513 (UniProt Q9NVE7) | -0.162

Target | log2 mean competition ratio
PCNA C162 (UniProt P12004) | -0.108
PDCD7 C281 (UniProt Q8N8D1) | -0.413
PAPSS1 C360 (UniProt O43252) | 0.113
PGM2L1 C348 (UniProt Q6PCE3) | 0.081
PFAS C336 (UniProt O15067) | -0.255
PC C739 (UniProt P11498) | 0.0268
PABPC4 C472 (UniProt Q13310) | 0.00759
PALLD C1319 (UniProt Q8WX93) | 0.254
PA2G4 C149 (UniProt Q9UQ80) | 0.197
PGM3 C200 | -0.21
OTUD4 C686 (UniProt Q01804) | 0.267
PDCL C291 (UniProt Q13371) | 0.672
PCNA C135 (UniProt P12004) | -0.165
PER1 C368 (UniProt O15534) | -0.0539
PCM1 C1717 (UniProt Q15154) | 0.365
PARD6B C13 (UniProt Q9BYG5) | 0.364
PCM1 C957 (UniProt Q15154) | -0.261
PARP2 C288 (UniProt Q9UGN5) | -0.0524
PACSIN3 C421 (UniProt Q9UKS6) | -0.0543

same assay, conditions: 200 µM; treatment time: 4 h; cell line lysate: HEK293T

Target | log2 mean competition ratio
PARG C711 (UniProt Q86W56) | -0.48
PDLIM5 C479 (UniProt Q96HC4) | -0.0837
PARD3 C921 (UniProt Q8TEW0) | 0.149
PC C622 (UniProt P11498) | 0.125
PFAS C270 (UniProt O15067) | 0.0432
PDCD11 C599 (UniProt Q14690) | -0.0126
PDK1 C71 | 0.321
PDK2 C392 (UniProt Q15119) | 0.175
PDE4A C218 (UniProt P27815) | 0.428
P4HA1 C503 (UniProt P13674) | -0.0239
PDK2 C195 (UniProt Q15119) | -0.0513
PFKFB2 C105 (UniProt O60825) | 0.0192
OVCA2 C64 (UniProt Q8WZ82) | -0.32
PCIF1 C455 (UniProt Q9H4Z3) | -0.281
PDE8A C338 (UniProt O60658) | -0.161
PDXDC1 C135 (UniProt Q6P996) | -0.176
PBK C300 (UniProt Q96KB5) | -0.6
PGM2 C484 (UniProt Q96G03) | -0.273
PANK4 C513 (UniProt Q9NVE7) | -0.0754

Target | log2 mean competition ratio
PCNA C162 (UniProt P12004) | -0.0705
PDCD7 C281 (UniProt Q8N8D1) | -0.0629
PAPSS1 C360 (UniProt O43252) | 0.461
PGM2L1 C348 (UniProt Q6PCE3) | -0.0456
PFAS C336 (UniProt O15067) | -0.0187
PC C739 (UniProt P11498) | 0.235
PABPC4 C472 (UniProt Q13310) | 0.125
PALLD C1319 (UniProt Q8WX93) | -0.496
PA2G4 C149 (UniProt Q9UQ80) | 0.169
PGM3 C200 | 0.176
OTUD4 C686 (UniProt Q01804) | -0.0059
PDCL C291 (UniProt Q13371) | -0.282
PCNA C135 (UniProt P12004) | -0.0531
PER1 C368 (UniProt O15534) | 0.394
PCM1 C1717 (UniProt Q15154) | 0.0515
PARD6B C13 (UniProt Q9BYG5) | -0.121
PCM1 C957 (UniProt Q15154) | 0.288
PARP2 C288 (UniProt Q9UGN5) | -0.0714
PACSIN3 C421 (UniProt Q9UKS6) | 0.327
